Holding throughout (assay): two-hybrid; mating-based split-ubiquitin system (mbSUS) in diploid S. cerevisiae: CubPLV bait and NubG prey; growth on SC medium lacking adenine and histidine and β-galactosidase activity; bait repressed by 75 µM methionine as control
Assay [1] addresses T1, full-length HMT-1 as split-ubiquitin fusion (HMT-1-CubPLV bait; HMT-1-NubG prey) (C. elegans) (UniProt G5EFD4).
T1 sequence: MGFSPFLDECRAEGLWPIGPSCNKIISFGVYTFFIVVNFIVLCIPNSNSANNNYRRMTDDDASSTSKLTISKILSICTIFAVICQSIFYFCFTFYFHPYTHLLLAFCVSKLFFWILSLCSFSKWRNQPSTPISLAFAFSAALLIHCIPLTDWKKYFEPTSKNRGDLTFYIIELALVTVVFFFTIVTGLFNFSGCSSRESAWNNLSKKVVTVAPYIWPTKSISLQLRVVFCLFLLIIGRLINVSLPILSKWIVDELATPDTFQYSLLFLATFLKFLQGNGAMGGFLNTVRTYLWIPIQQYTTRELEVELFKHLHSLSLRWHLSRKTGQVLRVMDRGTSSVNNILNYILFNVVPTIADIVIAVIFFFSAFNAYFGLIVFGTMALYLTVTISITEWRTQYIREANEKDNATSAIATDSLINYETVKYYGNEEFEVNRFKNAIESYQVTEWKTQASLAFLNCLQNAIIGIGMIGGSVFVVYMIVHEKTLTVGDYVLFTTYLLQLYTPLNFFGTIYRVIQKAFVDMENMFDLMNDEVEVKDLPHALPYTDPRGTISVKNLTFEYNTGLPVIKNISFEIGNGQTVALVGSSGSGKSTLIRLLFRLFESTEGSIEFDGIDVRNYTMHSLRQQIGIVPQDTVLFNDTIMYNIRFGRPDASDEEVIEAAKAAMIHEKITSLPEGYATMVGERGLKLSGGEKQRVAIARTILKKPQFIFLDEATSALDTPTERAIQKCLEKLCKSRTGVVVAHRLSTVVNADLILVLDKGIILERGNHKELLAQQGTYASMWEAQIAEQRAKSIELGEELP

Amino acid sequences for entries named in this document (tags omitted).
UniProt Q39128: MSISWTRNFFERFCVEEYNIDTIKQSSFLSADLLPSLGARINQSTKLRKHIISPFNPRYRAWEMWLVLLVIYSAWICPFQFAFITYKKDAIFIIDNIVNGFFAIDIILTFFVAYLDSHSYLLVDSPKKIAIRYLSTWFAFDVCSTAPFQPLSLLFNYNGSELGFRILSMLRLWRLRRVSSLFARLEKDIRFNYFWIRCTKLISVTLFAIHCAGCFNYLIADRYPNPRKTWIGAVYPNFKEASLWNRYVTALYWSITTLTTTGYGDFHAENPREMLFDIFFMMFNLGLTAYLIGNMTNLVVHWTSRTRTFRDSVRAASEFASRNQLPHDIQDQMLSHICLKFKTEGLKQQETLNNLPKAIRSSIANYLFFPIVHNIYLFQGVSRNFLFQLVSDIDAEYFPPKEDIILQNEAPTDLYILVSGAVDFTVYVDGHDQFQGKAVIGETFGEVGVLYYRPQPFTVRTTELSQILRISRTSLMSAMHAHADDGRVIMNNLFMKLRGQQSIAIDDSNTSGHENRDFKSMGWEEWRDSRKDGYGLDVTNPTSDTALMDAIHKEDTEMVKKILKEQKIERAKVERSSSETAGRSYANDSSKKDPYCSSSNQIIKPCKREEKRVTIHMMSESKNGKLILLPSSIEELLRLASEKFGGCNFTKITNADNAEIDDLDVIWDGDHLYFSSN

Assay [2] has as its target potassium channel KAT1 from Arabidopsis thaliana, as split-ubiquitin fusion (KAT1-CubPLV bait; KAT1-NubG prey) (Arabidopsis thaliana) (UniProt Q39128).
Assay [3] addresses T1, full-length HMT-1 as split-ubiquitin fusion (HMT-1-CubPLV bait; HMT-1-NubG prey) (C. elegans). This is another data set of the same source.
The target in assay [4] is potassium channel KAT1 from Arabidopsis thaliana, as split-ubiquitin fusion (KAT1-CubPLV bait; KAT1-NubG prey) (Arabidopsis thaliana) (UniProt Q39128). The source holds these as a separate data set.

Consider two molecules from paper PMC2944878.

Read-outs that look alike come from different tables or passages of the source. No constants are given. Whether binding was seen depends on the method and setting. Some binding calls cover weakened binding; strength is not graded here. For some of these results: Sequences can lack the tags named with a protein.

In the case of “potassium channel KAT1 from Arabidopsis thaliana, as split-ubiquitin fusion (KAT1-CubPLV bait; KAT1-NubG prey) (from UniProt Q39128 1-677)”, the binding result in assay [1] was “no binding”; in assay [2] it was “binds”.

B1: full-length HMT-1 as split-ubiquitin fusion (HMT-1-CubPLV bait; HMT-1-NubG prey) (protein, UniProt G5EFD4 1-801)
chain: T1 sequence
On to B1, for which the binding result in assay [3] is reported as “binds”; in assay [4] it was “no binding”.
